The values that follow are results of earlier work, collected in patent US20220218740A1, “OPIOID-FREE COMPOSITIONS FOR ANESTHESIOLOGICAL APPLICATIONS AND RELATED METHODS AND SYSTEMS” (Vaporworks Nursing Anesthesia Inc., priority 2020, published 2022).

Each structure is given as a SMILES string.

For this data set the following is noted: in vivo.

Turning to `C[C@@H]1C[C@H]2[C@@H]3CCC4=CC(=O)C=C[C@]4(C)[C@@]3(F)[C@@H](O)C[C@]2(C)[C@@]1(O)C(=O)COP(=O)(O)O` [Dexamethasone, Dexamethasone Sodium phosphate], the “period of insulin resistance after administration” value is 24 h.
